The other results are listed elsewhere or left out. Many values rest on one well or one pass, so single values are uncertain.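 Imaging used 1,536-well plates; nuclei positive for cleaved PARP by antibody were divided by total DNA-stained nuclei to yield the apoptosis fraction. Doses for screening kept most cells viable, and cell lines differ markedly in resting and induced cleaved-PARP levels.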
Columns and labels:
Experiment in all cases: cleaved PARP positive nuclei fraction relative to DMSO control; melanoma cells; higher = more apoptosis
Conditions in all cases: library dose: low library concentration; 72 h
MZ2-MEL = system: MZ2-MEL
MeWo = system: MeWo
RPMI7951 = system: RPMI7951
RVH-421 = system: RVH-421
SkMel28 = system: SkMel28
SkMel2 = system: SkMel2
SkMel30 = system: SkMel30
SkMel5 = system: SkMel5
UACC257 = system: UACC257
UACC62 = system: UACC62
WM115 = system: WM115
WM1716 = system: WM1716
WM1745 = system: WM1745
WM3526 = system: WM3526
WM3619 = system: WM3619
WM451Lu = system: WM451Lu

| Compound | cleaved PARP positive nuclei fraction (MZ2-MEL) [%] | cleaved PARP positive nuclei fraction (MeWo) [%] | cleaved PARP positive nuclei fraction (RPMI7951) [%] | cleaved PARP positive nuclei fraction (RVH-421) [%] | cleaved PARP positive nuclei fraction (SkMel28) [%] | cleaved PARP positive nuclei fraction (SkMel2) [%] | cleaved PARP positive nuclei fraction (SkMel30) [%] | cleaved PARP positive nuclei fraction (SkMel5) [%] | cleaved PARP positive nuclei fraction (UACC257) [%] | cleaved PARP positive nuclei fraction (UACC62) [%] | cleaved PARP positive nuclei fraction (WM115) [%] | cleaved PARP positive nuclei fraction (WM1716) [%] | cleaved PARP positive nuclei fraction (WM1745) [%] | cleaved PARP positive nuclei fraction (WM3526) [%] | cleaved PARP positive nuclei fraction (WM3619) [%] | cleaved PARP positive nuclei fraction (WM451Lu) [%] |
| --- | --- | --- | --- | --- | --- | --- | --- | --- | --- | --- | --- | --- | --- | --- | --- | --- |
| OCc1c[nH]c2ccccc12 [Indole-3-carbinol] + Cn1cncc1[C@@](N)(c1ccc(Cl)cc1)c1ccc2c(c1)c(-c1cccc(Cl)c1)cc(=O)n2C [tipifarnib] (first compound 0.8 µM, partner dose 0.01 µM) | 74.7 | 113 | 68.8 | 76.1 | 131 | 61.7 | 67.4 | 79.2 | 195 | 533 | 138 | 97.4 | 92.9 | 58.6 | 103 | 36.4 |
| OCc1c[nH]c2ccccc12 [Indole-3-carbinol] + OCCn1cc(-c2cnc3nnn(Cc4ccc5ncccc5c4)c3n2)cn1 [PF04217903] (first compound 0.8 µM, partner dose 1 µM) | 62.5 | 99 | 32.5 | 50.5 | 59.9 | 75.2 | 257 | 11.7 | 353 | 270 | 160 | 162 | 101 | 25.8 | 146 | 16 |
| C[C@]1(c2nc3c(C(N)=O)cccc3[nH]2)CCCN1 [Veliparib] + C=CCn1c(=O)c2cnc(Nc3ccc(N4CCN(C)CC4)cc3)nc2n1-c1cccc(C(C)(C)O)n1 [MK1775] (first compound 1.4 µM, partner dose 0.02 µM) | 68.2 | 179 | 64.8 | 124 | 145 | 156 | 69.6 | 164 | 169 | 97.2 | 177 | 187 | 119 | 73.4 | 147 | 115 |
| OCc1c[nH]c2ccccc12 [Indole-3-carbinol] + CN(C)S(=O)(=O)c1ccc2c(c1)/C(=C/c1cc3c([nH]1)CCCC3)C(=O)N2 [SU6656] (first compound 0.8 µM, partner dose 0.4 µM) | 49.8 | 105 | 185 | 50.5 | 77.1 | 47.1 | 67 | 78.1 | 163 | 193 | 174 | 58.1 | 228 | 49.4 | 77.3 | 76 |
| O=C(CCCCCCC(=O)Nc1ccccc1)NO [vorinostat] + O=C(O)c1ccc(-c2c[nH]c3ncc(-c4ccccc4)cc23)cc1C1CCCC1 [GSK650394] (first compound 0.08 µM, partner dose 0.16 µM) | 109 | 119 | 98.3 | 113 | 69.8 | 81 | 66 | 63.4 | 141 | 395 | 65.9 | 99 | 80.9 | 68.2 | 87 | 160 |
| Cc1nc(Nc2ncc(C(=O)Nc3c(C)cccc3Cl)s2)cc(N2CCN(CCO)CC2)n1 [dasatanib] + C[C@@H]1CCN(C(=O)CC#N)C[C@@H]1N(C)c1ncnc2[nH]ccc12 [CP690550] (first compound 0.004 µM, partner dose 1 µM) | 30.6 | 104 | 124 | 75.3 | 94 | 145 | 69.6 | 68.4 | 273 | 210 | 84.8 | 232 | 154 | 60 | 76.3 | 393 |
| Cc1nc(Nc2ncc(C(=O)Nc3c(C)cccc3Cl)s2)cc(N2CCN(CCO)CC2)n1 [dasatanib] + COc1cc(Nc2ncc(F)c(Nc3ccc4c(n3)NC(=O)C(C)(C)O4)n2)cc(OC)c1OC [Tamatinib] (first compound 0.004 µM, partner dose 0.4 µM) | 202 | 63.8 | 230 | 119 | 187 | 62.7 | 77.4 | 111 | 181 | 191 | 119 | 414 | 179 | 135 | 99.1 | 124 |
| Cn1c(Nc2ccc(C(F)(F)F)cc2)nc2cc(Oc3ccnc(-c4ncc(C(F)(F)F)[nH]4)c3)ccc21 + O=C(O)c1ccc(-c2c[nH]c3ncc(-c4ccccc4)cc23)cc1C1CCCC1 [GSK650394] (first compound 0.08 µM, partner dose 0.16 µM) | 149 | 46.1 | 191 | 88.8 | 72.6 | 95 | 148 | 97.7 | 669 | 318 | 608 | 253 | 133 | 215 | 131 | 44.2 |
| NC(=O)Nc1cc(-c2cccc(F)c2)sc1C(=O)N[C@H]1CCCNC1 + CN(NC(=O)CC(=O)NN(C)C(=S)c1ccccc1)C(=S)c1ccccc1 [STA4783] (first compound 0.02 µM, partner dose 0.006 µM) | 64.3 | 100 | 209 | 48.6 | 111 | 26.8 | 59.8 | 25.8 | 43.9 | 144 | 196 | 226 | 326 | 66.2 | 196 | 64.9 |
| COc1cc(Nc2ncc(F)c(Nc3ccc4c(n3)NC(=O)C(C)(C)O4)n2)cc(OC)c1OC [Tamatinib] + CC1(C)NC(=O)N(c2ccc([N+](=O)[O-])c(C(F)(F)F)c2)C1=O [nilutamide] (first compound 0.4 µM, partner dose 1 µM) | 163 | 54.3 | 71.2 | 26.5 | 74.5 | 94.2 | 59.2 | 186 | 60.1 | 299 | 98.2 | 185 | 134 | 73.5 | 86.3 | 93.2 |
| Clc1ccc(Nc2nnc(Cc3ccncc3)c3ccccc23)cc1 [vatalanib] + COc1ccc(COc2ccc(Cc3cnc(N)nc3N)cc2OC)cc1 [GW2580] (first compound 2 µM, partner dose 1 µM) | 89.6 | 66.3 | 50.3 | 80.8 | 88.9 | 350 | 379 | 209 | 166 | 139 | 71.5 | 30.4 | 121 | 143 | 78.9 | 72.4 |
| CC(C)(C)c1cnc(CSc2cnc(NC(=O)C3CCNCC3)s2)o1 + O=C(Nc1cccc(Cl)c1)Nc1ncc(CCNc2ncnc3ccsc23)s1 [SNS314] (first compound 0.01 µM, partner dose 0.0008 µM) | 252 | 135 | 75.3 | 62 | 48.4 | 121 | 145 | 64.6 | 99 | 188 | 101 | 87.2 | 124 | 132 | 93.3 | 124 |
| COc1cc(Nc2ncc(F)c(Nc3ccc4c(n3)NC(=O)C(C)(C)O4)n2)cc(OC)c1OC [Tamatinib] + NC(=O)Nc1cc(-c2cccc(F)c2)sc1C(=O)N[C@H]1CCCNC1 [AZD7762] (first compound 0.4 µM, partner dose 0.02 µM) | 99.1 | 148 | 200 | 77.8 | 128 | 81 | 171 | 68.3 | 68.8 | 149 | 251 | 28.4 | 299 | 183 | 152 | 195 |
| CC(=O)c1c(C)c2cnc(Nc3ccc(N4CCNCC4)cn3)nc2n(C2CCCC2)c1=O [palbociclib] + C[C@@H]1CCN(C(=O)CC#N)C[C@@H]1N(C)c1ncnc2[nH]ccc12 [CP690550] (first compound 0.04 µM, partner dose 1 µM) | 161 | 142 | 61.7 | 92.1 | 142 | 54.8 | 95.1 | 140 | 307 | 86.9 | 88.3 | 137 | 119 | 97.7 | 151 | 71.3 |
| CO[C@@H]1[C@H](N(C)C(=O)c2ccccc2)C[C@H]2O[C@]1(C)n1c3ccccc3c3c4c(c5c6ccccc6n2c5c31)C(=O)NC4 [Midostaurin] + NC(=O)Nc1cc(-c2cccc(F)c2)sc1C(=O)N[C@H]1CCCNC1 [AZD7762] (first compound 0.08 µM, partner dose 0.02 µM) | 52 | 128 | 131 | 141 | 223 | 92.8 | 63.5 | 50.4 | 53.8 | 27.9 | 245 | 180 | 107 | 41 | 246 | 32.1 |
| C[C@]1(c2nc3c(C(N)=O)cccc3[nH]2)CCCN1 [Veliparib] + O=C(Nc1cccc(Cl)c1)Nc1ncc(CCNc2ncnc3ccsc23)s1 [SNS314] (first compound 1.4 µM, partner dose 0.0008 µM) | 153 | 89.8 | 149 | 123 | 260 | 110 | 61.8 | 136 | 170 | 97.1 | 209 | 42 | 109 | 162 | 101 | 268 |
| C=CCn1c(=O)c2cnc(Nc3ccc(N4CCN(C)CC4)cc3)nc2n1-c1cccc(C(C)(C)O)n1 + C[C@@H]1CCN(C(=O)CC#N)C[C@@H]1N(C)c1ncnc2[nH]ccc12 [CP690550] (first compound 0.02 µM, partner dose 1 µM) | 11.7 | 38.8 | 53.9 | 103 | 78.6 | 74.4 | 61.1 | 76.1 | 30.5 | 161 | 72.4 | 88.5 | 113 | 113 | 201 | 60 |

Complete entries, quoted from the list. Values in the order: cleaved PARP positive nuclei fraction (MZ2-MEL) [%] | cleaved PARP positive nuclei fraction (MeWo) [%] | cleaved PARP positive nuclei fraction (RPMI7951) [%] | cleaved PARP positive nuclei fraction (RVH-421) [%] | cleaved PARP positive nuclei fraction (SkMel28) [%] | cleaved PARP positive nuclei fraction (SkMel2) [%] | cleaved PARP positive nuclei fraction (SkMel30) [%] | cleaved PARP positive nuclei fraction (SkMel5) [%] | cleaved PARP positive nuclei fraction (UACC257) [%] | cleaved PARP positive nuclei fraction (UACC62) [%] | cleaved PARP positive nuclei fraction (WM115) [%] | cleaved PARP positive nuclei fraction (WM1716) [%] | cleaved PARP positive nuclei fraction (WM1745) [%] | cleaved PARP positive nuclei fraction (WM3526) [%] | cleaved PARP positive nuclei fraction (WM3619) [%] | cleaved PARP positive nuclei fraction (WM451Lu) [%]
C[C@]1(c2nc3c(C(N)=O)cccc3[nH]2)CCCN1 [Veliparib] + C=CCn1c(=O)c2cnc(Nc3ccc(N4CCN(C)CC4)cc3)nc2n1-c1cccc(C(C)(C)O)n1 [MK1775] (first compound 1.4 µM, partner dose 0.02 µM) is entered as 68.2 | 179 | 64.8 | 124 | 145 | 156 | 69.6 | 164 | 169 | 97.2 | 177 | 187 | 119 | 73.4 | 147 | 115
CC(C)(C)c1cnc(CSc2cnc(NC(=O)C3CCNCC3)s2)o1 + O=C(Nc1cccc(Cl)c1)Nc1ncc(CCNc2ncnc3ccsc23)s1 [SNS314] (first compound 0.01 µM, partner dose 0.0008 µM) is entered as 252 | 135 | 75.3 | 62 | 48.4 | 121 | 145 | 64.6 | 99 | 188 | 101 | 87.2 | 124 | 132 | 93.3 | 124

From the supplement of paper PMC4604168 (melanoma cell lines)
